Patent US10611795B2, “Methods for viral inactivation using eco-friendly detergents” (priority 2013, dated 2020)

Assays:
[1] = tested on: MAb1; assay: iCIEF charge heterogeneity after detergent treatment; settings: MAb1 HCCF, detergent mixing study
[2] = tested on: MAb1; assay: Size exclusion chromatography (SEC) of product after detergent treatment; settings: MAb1 HCCF, detergent mixing study
[3] = tested on: MAb3; assay: iCIEF charge heterogeneity after detergent treatment; settings: three hours ambient
[4] = tested on: DNA; assay: DNA quantitation (TaqMan PCR assay); settings: three hours ambient
[5] = tested on: MAb3; assay: Size exclusion chromatography (SEC) of product after detergent treatment; settings: three hours ambient

Substance | iCIEF % Acidic [1] [%] | iCIEF % Basic [1] [%] | iCIEF % Main [1] [%] | SEC % HMWS [2] [%] | SEC % LMWS [2] [%] | iCIEF-acidic (%) ([3]; MAb3 HCCF + Detergent) | iCIEF-basic (%) ([3]; MAb3 HCCF + Detergent) | iCIEF-main (%) ([3]; MAb3 HCCF + Detergent) | iCIEF-acidic (%) ([3]; MAb3 N. ProA pool + detergent) | iCIEF-basic (%) ([3]; MAb3 N. ProA pool + detergent) | iCIEF-main (%) ([3]; MAb3 N. ProA pool + detergent) | DNA (ppm), HCCF + Detergent ([4]; MAb3 HCCF) [ppm] | DNA (ppm), Adj. ProA pool + Detergent ([4]; MAb3 adjusted protein A pool) [ppm] | SEC-HMWS (%) ([5]; MAb3 HCCF + Detergent) | SEC-LMWS (%) ([5]; MAb3 HCCF + Detergent) | SEC-main (%) ([5]; MAb3 HCCF + Detergent) | SEC-HMWS (%) ([5]; MAb3 N. ProA pool + detergent) | SEC-LMWS (%) ([5]; MAb3 N. ProA pool + detergent) | SEC-main (%) ([5]; MAb3 N. ProA pool + detergent)
Polysorbate 20 | 35.0 | 2.5 | 62.5 | 7.3 | 0.1 | – | – | – | – | – | – | – | – | – | – | – | – | – | –
Triton X-100 [reference compound] | – | – | – | – | – | 59.8 | 2.65 | 37.6 | 51.1 | 3.51 | 45.4 | 261 | 2.1 | 2.2 | 0.1 | 97.7 | 2.3 | 0.1 | 97.6
